Data from patent publication US5955421A (priority 1990, dated 1999).
HELM strings list residues between dots; [ac] is acetyl, [am] amide, other brackets name non-standard units.

Experiment: general procedure: Fmoc solid-phase peptide synthesis; benzhydrylamine resin (BHA), p-Me-BHA, chloromethylated or hydroxymethylated resin; symmetrical anhydrides or diisopropylcarbodiimide; Opfp esters; alternatively BO
Conditions: whole synthesis
[1] = TFA salts, purified as acetate salts

PEPTIDE1{[INIP].[D-Mrp].[D-bNal].F.K.[am]}$$$$V2.0
final HPLC purity [1]: 96.5%

4-(aminomethyl)cyclohexanecarbonyl-D-Mrp-D-Trp-Phe-Lys-NH^2
final HPLC purity [1]: 99.0%

IMA-D-Mrp-D-β-Nal-Phe-Lys-NH2
final HPLC purity [1]: 97.3%

PEPTIDE1{[INIP].[D-Mrp].[dW].F.K.[am]}$$$$V2.0
final HPLC purity [1]: 99.0%

D-Thr-D-Mrp-Ala-Trp-D-Phe-Lys-NH2
final HPLC purity [1]: 98.0%

Tyr-His-D-Mrp-Ala-Trp-D-Phe-Lys-NH2
final HPLC purity [1]: 96.8%

PEPTIDE1{[GAB].[D-Mrp].[dW].F.K.[am]}$$$$V2.0
final HPLC purity (acetate salt): 98%

PEPTIDE1{[GAB].[D-Mrp].[D-Mrp].[D-Mrp].K.[am]}$$$$V2.0
final HPLC purity [1]: 99.0%

D-Ala-D-Mrp-Ala-Trp-D-Phe-Lys-NH2
final HPLC purity [1]: 99.3%

PEPTIDE1{[GAB].[D-Mrp].[D-bNal].F.K.[am]}$$$$V2.0
final HPLC purity [1]: 99.0%

D-Thr-D-Mrp-Ala-Trp-NH2
final HPLC purity [1]: 97.5%

4-(aminomethyl)cyclohexanecarbonyl-D-Mrp-D-β-Nal-Phe-Lys-NH2
final HPLC purity [1]: 96.9%

IMA-D-Mrp-D-Trp-Phe-Lys-NH2
final HPLC purity [1]: 99.2%

PEPTIDE1{H.[D-Mrp].A.W.[am]}$$$$V2.0
final HPLC purity [1]: 99.8%

PEPTIDE1{[GAB].[D-Mrp].[D-Mrp].[Mrp].K.[am]}$$$$V2.0
final HPLC purity [1]: 98.0%

PEPTIDE1{[GAB].[D-Mrp].[D-Mrp].F.K.[am]}$$$$V2.0
final HPLC purity [1]: 98.0%

His-D-Mrp-Ala-Phe-D-Trp-Lys-NH2
final HPLC purity [1]: 22 98.6%
